Results taken from article PMC4250520, “Calcium-induced conformational changes of the regulatory domain of human mitochondrial aspartate/glutamate carriers” (Nature Communications, 2014).
These are yes or no findings as the source states them, for the method shown.

Columns and labels:
[1] = biological target: carrier domain of citrin (human) (UniProt Q9UJS0); experiment: SEC-MALLS; Superose 6 10/300 GL; 20 mM Hepes pH 8.0, 150 mM NaCl, 2.5 mM DTT, 0.03% (w/v) DDM, 0.03 mg/ml TOCL; protein-conjugate (three-detector) method; both purified
[2] = biological target: carrier domain of citrin (human) (UniProt Q9UJS0); experiment: SEC-MALLS; carrier domain in lauryl maltose neopentyl glycol; protein partially aggregated; both purified

binding [1]: no binding
binding [2]: no binding
B1: carrier domain of citrin (domain or fragment, UniProt Q9UJS0 320-612)
chain: PVLLQVAESAYRFGLGSVAGAVGATAVYPIDLVKTRMQNQRSTGSFVGELMYKNSFDCFKKVLRYEGFFGLYRGLLPQLLGVAPEKAIKLTVNDFVRDKFMHKDGSVPLAAEILAGGCAGGSQVIFTNPLEIVKIRLQVAGEITTGPRVSALSVVRDLGFFGIYKGAKACFLRDIPFSAIYFPCYAHVKASFANEDGQVSPGSLLLAGAIAGMPAASLVTPADVIKTRLQVAARAGQTTYSGVIDCFRKILREEGPKALWKGAGARVFRSSPQFGVTLLTYELLQRWFYIDFG
